# Values from PubChem BioAssay AID1259308 (NCATS, 2017).
# Purpose: 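Genes whose loss raises luciferase production in HEK293 cells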 (primary screen)
# Cells: human HEK293 embryonic kidney cells stably expressing firefly luciferase (HEK-CMV-Luc2-Hygro)
# Reagent: single siRNA against human genes, 0.8 pmol siRNA per well
# Duration: 72 h
# Measurement: 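Reporter luminescence and viable-cell signal on separate replicate plates, given as percent of non-targeting control and median/MAD z-scores, plus per-cell luciferase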
# Scale: total luciferase, z-score and total luciferase, % of control: higher = more reporter protein produced; luciferase per cell, z-score: higher = more reporter output per viable cell; viable cells, % of control: higher = more viable cells
# Call rule: 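An siRNA counts as active if its total luciferase robust z-score exceeds 3; genes with two or more such siRNAs out of three were retested with fresh siRNAs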
# Calls: active = raised luciferase; inactive = no rise
# The deposit covers about 59,000 reagents; below is an unselected part. Of all reagents, about 1,510 (2.6%) were called active. 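Calls use total luciferase alone and ignore viability, so some active siRNAs may act by altering cell number.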 Unmarked entries are inactive. The numbers tell different reagents against one gene apart.
Target gene,reagent no.,"total luciferase, z-score","total luciferase, % of control","luciferase per cell, z-score","viable cells, % of control"
ARL16,1,0.289,87.6,0.534,85.1
ARL16,2,0.322,88.3,0.733,81.3
ARL16,3,1.59,114,2.01,74.8
VWA1,1,-0.372,74.5,-0.708,100
VWA1,2,-0.484,72.3,-0.648,95.8
VWA1,3,0.546,92.7,-0.523,119
PSMD7,1,-1.3,56,2.9,29.2
PSMD7,2,0.2,85.9,2.15,54.5
PSMD7,3,-0.103,79.8,2.67,44.2
RPS6KA6,1,-0.339,75.1,-0.315,91.2
RPS6KA6,2,0.802,97.8,1.75,69
RPS6KA6,3,0.292,87.7,0.284,90.9
HNRNPU,1,0.859,99,2.27,60.9
HNRNPU,2,0.398,89.8,1.24,72.5
HNRNPU,3,-1.1,59.9,0.458,59.4
CCDC169,1,0.988,102,0.786,92.3
CCDC169,2,-1.03,61.5,-0.605,80.6
CCDC169,3,-0.261,76.7,-0.683,103
ETS1,1,1.3,108,0.831,96.7
ETS1,2,2.06,123,1.22,99.4
ETS1,3,4.89 (active),179,2.74,97.4
OR4C12,1,0.448,90.8,1.15,75
OR4C12,2,-0.306,75.8,0.371,76.8
OR4C12,3,-0.592,70.1,-0.324,85.3

Records above called active:
Target gene,reagent no.,"total luciferase, z-score","total luciferase, % of control","luciferase per cell, z-score","viable cells, % of control"
ETS1,3,4.89 (active),179,2.74,97.4
